Source: the supplement of paper PMC11732987, “Enantioselective OTUD7B fragment discovery through chemoproteomics screening and high-throughput optimisation” (Communications Chemistry, 2025)
The other results are listed elsewhere or left out. The data scatter; read single values as rough.

Sequences of proteins named here, by UniProt entry; tags and fusion partners are left off. A change or cut given only in a name is not applied to a line headed by its entry. Residues count along the entry.
UniProt Q9NRL2: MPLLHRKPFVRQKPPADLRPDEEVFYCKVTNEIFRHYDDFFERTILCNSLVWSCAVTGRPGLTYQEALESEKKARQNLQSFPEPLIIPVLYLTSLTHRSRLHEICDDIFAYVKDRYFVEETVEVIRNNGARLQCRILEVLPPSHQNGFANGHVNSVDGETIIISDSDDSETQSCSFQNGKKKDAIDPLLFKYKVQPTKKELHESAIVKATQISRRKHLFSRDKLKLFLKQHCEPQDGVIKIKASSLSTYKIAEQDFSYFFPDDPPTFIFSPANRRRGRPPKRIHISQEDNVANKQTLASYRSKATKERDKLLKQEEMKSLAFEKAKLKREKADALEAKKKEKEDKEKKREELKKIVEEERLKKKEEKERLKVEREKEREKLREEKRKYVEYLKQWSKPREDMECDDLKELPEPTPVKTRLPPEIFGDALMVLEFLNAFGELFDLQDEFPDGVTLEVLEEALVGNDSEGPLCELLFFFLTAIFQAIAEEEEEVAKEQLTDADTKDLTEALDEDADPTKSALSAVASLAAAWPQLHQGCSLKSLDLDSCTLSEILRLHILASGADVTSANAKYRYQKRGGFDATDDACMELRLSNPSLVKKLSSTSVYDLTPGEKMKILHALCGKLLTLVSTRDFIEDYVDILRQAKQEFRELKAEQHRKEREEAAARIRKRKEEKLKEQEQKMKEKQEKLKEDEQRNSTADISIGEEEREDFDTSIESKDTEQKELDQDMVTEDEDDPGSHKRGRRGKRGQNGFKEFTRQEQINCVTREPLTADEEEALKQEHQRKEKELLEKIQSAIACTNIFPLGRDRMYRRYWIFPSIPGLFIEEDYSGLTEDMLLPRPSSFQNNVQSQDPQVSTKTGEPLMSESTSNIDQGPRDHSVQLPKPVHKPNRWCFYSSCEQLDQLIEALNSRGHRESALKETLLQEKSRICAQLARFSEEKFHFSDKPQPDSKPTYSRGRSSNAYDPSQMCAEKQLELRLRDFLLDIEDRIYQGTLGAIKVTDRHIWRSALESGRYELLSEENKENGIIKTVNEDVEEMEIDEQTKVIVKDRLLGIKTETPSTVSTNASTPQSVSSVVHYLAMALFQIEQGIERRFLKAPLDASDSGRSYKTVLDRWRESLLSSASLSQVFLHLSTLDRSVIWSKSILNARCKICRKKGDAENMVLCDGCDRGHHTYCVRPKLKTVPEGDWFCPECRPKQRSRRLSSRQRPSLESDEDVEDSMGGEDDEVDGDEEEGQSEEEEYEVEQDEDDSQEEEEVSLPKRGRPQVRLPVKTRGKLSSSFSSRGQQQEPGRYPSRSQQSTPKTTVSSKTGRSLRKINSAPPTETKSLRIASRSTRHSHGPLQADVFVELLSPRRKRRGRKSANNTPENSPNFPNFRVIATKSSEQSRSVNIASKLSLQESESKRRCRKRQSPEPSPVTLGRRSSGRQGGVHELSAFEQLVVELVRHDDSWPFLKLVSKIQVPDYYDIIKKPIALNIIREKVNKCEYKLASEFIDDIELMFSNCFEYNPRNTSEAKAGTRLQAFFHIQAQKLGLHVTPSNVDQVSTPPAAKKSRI
UniProt Q8N9N5: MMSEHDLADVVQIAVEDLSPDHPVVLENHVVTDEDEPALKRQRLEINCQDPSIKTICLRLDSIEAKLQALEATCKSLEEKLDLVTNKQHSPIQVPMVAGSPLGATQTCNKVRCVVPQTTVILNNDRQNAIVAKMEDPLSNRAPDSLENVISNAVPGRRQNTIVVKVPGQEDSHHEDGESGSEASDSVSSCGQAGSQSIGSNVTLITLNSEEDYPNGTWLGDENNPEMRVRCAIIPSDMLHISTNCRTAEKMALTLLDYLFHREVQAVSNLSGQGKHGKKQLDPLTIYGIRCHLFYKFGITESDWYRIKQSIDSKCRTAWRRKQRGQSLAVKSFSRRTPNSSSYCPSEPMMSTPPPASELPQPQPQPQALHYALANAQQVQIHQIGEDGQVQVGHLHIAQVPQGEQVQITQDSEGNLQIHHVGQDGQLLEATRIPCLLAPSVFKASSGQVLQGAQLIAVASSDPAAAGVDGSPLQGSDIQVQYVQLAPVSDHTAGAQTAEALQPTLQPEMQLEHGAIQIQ
UniProt Q14692: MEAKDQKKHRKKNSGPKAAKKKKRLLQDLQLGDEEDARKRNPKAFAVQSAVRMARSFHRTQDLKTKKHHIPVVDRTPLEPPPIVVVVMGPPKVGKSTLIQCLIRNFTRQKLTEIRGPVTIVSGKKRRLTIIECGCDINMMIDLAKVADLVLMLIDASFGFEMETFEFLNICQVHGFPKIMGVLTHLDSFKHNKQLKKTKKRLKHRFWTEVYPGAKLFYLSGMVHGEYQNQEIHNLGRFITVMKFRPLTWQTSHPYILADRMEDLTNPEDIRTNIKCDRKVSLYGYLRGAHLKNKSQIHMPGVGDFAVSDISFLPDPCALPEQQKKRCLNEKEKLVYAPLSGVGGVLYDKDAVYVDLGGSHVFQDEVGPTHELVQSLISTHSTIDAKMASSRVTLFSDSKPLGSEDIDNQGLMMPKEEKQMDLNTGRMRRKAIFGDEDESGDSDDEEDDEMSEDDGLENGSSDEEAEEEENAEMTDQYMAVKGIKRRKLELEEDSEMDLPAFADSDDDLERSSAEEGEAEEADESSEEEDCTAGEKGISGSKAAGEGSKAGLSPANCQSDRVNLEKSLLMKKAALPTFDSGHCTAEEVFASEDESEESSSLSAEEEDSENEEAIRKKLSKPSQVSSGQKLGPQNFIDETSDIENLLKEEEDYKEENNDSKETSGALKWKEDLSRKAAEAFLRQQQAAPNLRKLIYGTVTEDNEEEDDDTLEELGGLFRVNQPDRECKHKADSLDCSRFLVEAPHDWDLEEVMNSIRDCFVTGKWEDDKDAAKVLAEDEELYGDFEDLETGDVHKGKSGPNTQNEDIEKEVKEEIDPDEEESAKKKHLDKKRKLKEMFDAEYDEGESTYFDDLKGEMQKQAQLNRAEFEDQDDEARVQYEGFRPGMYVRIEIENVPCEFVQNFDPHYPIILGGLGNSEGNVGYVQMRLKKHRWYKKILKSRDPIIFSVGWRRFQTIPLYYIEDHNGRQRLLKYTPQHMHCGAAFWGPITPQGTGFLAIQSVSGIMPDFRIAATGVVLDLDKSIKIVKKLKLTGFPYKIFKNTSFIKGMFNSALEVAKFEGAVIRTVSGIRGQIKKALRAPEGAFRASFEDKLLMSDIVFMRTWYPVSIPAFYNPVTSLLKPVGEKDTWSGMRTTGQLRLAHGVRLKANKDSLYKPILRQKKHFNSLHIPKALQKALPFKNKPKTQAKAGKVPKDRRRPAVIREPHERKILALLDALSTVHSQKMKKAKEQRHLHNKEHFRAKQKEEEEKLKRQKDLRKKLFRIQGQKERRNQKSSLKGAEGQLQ
UniProt Q9UL15, 308-329: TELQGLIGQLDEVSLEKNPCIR
UniProt Q9Y4P1: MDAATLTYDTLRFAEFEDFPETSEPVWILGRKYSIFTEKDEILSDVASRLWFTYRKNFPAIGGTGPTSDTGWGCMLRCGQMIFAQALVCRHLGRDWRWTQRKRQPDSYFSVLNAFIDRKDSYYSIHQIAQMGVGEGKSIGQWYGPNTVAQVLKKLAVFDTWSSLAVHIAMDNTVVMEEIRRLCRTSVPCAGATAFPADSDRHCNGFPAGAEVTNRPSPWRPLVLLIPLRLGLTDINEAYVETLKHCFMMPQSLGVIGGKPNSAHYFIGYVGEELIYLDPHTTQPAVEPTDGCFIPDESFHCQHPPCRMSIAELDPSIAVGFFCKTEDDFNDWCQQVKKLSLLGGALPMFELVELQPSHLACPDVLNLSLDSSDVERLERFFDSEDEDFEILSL
UniProt Q96GD4: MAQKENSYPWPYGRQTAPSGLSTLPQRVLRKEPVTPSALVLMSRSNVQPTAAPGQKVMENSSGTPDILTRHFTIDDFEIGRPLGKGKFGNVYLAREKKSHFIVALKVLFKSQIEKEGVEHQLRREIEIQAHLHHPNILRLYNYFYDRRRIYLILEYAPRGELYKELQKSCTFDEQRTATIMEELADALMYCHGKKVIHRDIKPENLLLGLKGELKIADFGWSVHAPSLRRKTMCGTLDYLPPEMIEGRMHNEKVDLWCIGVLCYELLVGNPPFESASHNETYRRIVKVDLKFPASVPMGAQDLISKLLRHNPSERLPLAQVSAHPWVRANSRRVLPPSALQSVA
UniProt O75815: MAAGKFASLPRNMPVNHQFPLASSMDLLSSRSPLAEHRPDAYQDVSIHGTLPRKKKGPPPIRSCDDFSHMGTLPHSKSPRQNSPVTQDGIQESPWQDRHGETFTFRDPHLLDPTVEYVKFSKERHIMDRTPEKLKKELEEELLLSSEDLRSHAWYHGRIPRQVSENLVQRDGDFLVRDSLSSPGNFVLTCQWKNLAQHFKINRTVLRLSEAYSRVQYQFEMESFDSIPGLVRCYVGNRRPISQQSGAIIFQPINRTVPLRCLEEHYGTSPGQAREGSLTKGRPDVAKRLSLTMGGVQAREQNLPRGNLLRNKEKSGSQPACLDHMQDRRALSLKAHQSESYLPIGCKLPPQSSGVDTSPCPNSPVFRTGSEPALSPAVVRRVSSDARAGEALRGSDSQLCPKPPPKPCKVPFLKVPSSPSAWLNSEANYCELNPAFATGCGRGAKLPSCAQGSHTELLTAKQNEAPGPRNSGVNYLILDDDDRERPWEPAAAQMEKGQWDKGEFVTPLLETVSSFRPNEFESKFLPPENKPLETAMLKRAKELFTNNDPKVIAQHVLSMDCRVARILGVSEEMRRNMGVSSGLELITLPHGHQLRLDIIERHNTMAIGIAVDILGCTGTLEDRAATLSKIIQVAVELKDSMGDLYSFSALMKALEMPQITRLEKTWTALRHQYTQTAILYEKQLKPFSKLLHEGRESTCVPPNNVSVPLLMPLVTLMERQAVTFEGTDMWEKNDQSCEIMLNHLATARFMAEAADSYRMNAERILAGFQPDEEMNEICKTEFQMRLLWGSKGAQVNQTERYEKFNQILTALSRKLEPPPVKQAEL
UniProt Q76L83: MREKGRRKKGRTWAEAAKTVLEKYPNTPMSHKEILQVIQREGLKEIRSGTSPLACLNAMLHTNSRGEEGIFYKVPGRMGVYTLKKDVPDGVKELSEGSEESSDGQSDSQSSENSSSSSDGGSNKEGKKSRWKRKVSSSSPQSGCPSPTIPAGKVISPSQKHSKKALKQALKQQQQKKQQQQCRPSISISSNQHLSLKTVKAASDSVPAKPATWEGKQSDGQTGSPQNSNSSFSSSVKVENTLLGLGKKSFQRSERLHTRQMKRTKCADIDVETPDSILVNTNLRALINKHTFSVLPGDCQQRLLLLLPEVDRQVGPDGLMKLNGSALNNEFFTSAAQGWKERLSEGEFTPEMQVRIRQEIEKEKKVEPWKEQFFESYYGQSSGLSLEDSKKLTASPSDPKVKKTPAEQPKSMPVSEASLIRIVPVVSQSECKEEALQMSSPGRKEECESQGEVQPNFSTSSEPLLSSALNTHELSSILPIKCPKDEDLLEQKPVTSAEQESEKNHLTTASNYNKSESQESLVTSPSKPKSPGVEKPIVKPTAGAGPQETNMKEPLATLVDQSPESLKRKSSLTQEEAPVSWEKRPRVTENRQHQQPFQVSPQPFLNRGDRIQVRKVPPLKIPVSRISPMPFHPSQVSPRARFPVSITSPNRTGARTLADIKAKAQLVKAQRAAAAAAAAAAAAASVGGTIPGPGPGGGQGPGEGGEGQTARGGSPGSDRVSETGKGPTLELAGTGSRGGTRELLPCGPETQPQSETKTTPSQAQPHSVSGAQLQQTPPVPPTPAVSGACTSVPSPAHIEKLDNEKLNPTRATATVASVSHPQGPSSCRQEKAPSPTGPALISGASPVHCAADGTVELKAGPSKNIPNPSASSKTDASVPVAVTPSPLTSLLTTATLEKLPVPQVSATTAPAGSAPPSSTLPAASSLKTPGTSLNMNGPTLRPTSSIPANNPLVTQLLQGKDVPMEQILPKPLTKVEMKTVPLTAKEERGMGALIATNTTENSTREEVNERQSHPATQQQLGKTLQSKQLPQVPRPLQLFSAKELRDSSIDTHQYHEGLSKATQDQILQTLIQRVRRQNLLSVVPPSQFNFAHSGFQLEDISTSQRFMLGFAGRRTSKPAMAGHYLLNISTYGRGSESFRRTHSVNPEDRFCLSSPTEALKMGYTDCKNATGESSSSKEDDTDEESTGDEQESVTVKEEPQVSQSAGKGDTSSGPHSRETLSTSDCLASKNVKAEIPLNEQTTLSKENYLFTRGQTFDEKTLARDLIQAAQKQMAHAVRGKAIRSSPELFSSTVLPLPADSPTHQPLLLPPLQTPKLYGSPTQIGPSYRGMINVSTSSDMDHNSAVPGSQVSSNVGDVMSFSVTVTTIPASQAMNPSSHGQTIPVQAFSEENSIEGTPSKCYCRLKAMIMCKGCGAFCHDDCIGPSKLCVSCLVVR

Experiments:
[1] = compound: ClCC(=O)N[C@@H]1CCCc2ccccc12; test: log2 mean competition ratio of IA-DTB cysteine labelling (DMSO/compound) (log2 ratio); higher = stronger cysteine engagement by compound; settings: treatment time: 4 h, cell line lysate: HEK293T
Experimental: (§1)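 IA-DTB competitive cysteine chemoproteomics in HEK293T RIPA lysate. Lysates were treated with compound 29 or 30 at 50 or 200 µM for 4 h, then IA-DTB (500 µM, 1 h), trypsin-digested, NeutrAvidin-enriched and analysed by diaPASEF. Competition ratio = intensity DMSO / intensity compound (n=4 treated, n=64 DMSO); binding: mean log2 CR ≥ 1 and p ≤ 0.05 plus QC filters. Target is the cysteine site.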

[2] = compound: ClCC(=O)N[C@H]1CCCc2ccccc12; test: as above; settings: treatment time: 4 h, cell line lysate: HEK293T
Experimental: as §1

Row | Target | log2 mean competition ratio ([1]; 50 µM) | log2 mean competition ratio ([1]; 200 µM) | log2 mean competition ratio ([2]; 50 µM) | log2 mean competition ratio ([2]; 200 µM)
1 | BCOR C494 (UniProt Q6W2J9) | -0.101 | -0.243 | 0.215 | -0.309
2 | BCORL1 C797 (UniProt Q5H9F3) | -0.0557 | 0.146 | 0.657 | 0.261
3 | BAZ1A C547 (UniProt Q9NRL2) | -0.142 | 0.179 | -0.339 | 0.262
4 | BANP C48 (UniProt Q8N9N5) | 0.0713 | -0.0796 | -0.209 | 0.0705
5 | BMS1 C101 (UniProt Q14692) | 0.0552 | -0.0404 | -0.25 | 0.0542
6 | BAG5 C327 (UniProt Q9UL15) | -0.104 | 0.21 | -0.00618 | 0.0978
7 | ATG4B C333 (UniProt Q9Y4P1) | -0.183 | -0.203 | 0.126 | -0.192
8 | AURKB C234 (UniProt Q96GD4) | -0.19 | -0.0964 | 0.101 | 0.0978
9 | BCAR3 C64 (UniProt O75815) | 0.129 | 0.166 | -0.197 | 0.101
10 | ASXL2 C299 (UniProt Q76L83) |  |  |  | -0.229
11 | BAZ1B C1348 (UniProt Q9UIG0) | -0.0126 | -0.141 | 0.047 | -0.104

Full records, quoted from the list. Values in the order: log2 mean competition ratio ([1]; 50 µM) | log2 mean competition ratio ([1]; 200 µM) | log2 mean competition ratio ([2]; 50 µM) | log2 mean competition ratio ([2]; 200 µM)
BCAR3 C64 (UniProt O75815) in the list: 0.129 | 0.166 | -0.197 | 0.101
AURKB C234 (UniProt Q96GD4) in the list: -0.19 | -0.0964 | 0.101 | 0.0978
